# Experimental data reported in the supplement of paper PMC10849652.
# Amino acid sequences for entries named in this document (tags omitted). A change or cut given only in a name is not applied to a line headed by its entry.
# UniProt P47813, whole entry, looked up: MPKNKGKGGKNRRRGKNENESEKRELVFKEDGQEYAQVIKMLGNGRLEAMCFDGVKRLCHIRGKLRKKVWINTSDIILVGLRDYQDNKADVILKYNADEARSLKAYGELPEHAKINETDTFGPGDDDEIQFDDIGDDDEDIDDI
# UniProt Q8IZ81: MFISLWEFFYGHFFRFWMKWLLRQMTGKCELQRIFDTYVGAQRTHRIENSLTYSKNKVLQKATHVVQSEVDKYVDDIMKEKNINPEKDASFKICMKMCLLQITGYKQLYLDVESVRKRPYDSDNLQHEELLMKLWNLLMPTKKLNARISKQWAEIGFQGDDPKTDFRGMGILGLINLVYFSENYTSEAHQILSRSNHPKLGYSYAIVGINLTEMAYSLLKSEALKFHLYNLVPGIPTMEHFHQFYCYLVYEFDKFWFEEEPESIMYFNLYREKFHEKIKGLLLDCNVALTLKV
# UniProt Q13542: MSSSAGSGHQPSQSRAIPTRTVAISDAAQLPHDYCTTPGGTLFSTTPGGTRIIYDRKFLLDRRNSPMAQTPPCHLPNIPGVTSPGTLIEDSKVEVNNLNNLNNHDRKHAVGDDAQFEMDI
# UniProt P54852: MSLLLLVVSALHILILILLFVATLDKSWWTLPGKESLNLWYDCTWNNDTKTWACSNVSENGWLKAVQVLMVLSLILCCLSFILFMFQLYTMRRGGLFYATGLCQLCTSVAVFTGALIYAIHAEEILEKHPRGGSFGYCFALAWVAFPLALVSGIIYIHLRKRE
# UniProt Q13144, whole entry, looked up: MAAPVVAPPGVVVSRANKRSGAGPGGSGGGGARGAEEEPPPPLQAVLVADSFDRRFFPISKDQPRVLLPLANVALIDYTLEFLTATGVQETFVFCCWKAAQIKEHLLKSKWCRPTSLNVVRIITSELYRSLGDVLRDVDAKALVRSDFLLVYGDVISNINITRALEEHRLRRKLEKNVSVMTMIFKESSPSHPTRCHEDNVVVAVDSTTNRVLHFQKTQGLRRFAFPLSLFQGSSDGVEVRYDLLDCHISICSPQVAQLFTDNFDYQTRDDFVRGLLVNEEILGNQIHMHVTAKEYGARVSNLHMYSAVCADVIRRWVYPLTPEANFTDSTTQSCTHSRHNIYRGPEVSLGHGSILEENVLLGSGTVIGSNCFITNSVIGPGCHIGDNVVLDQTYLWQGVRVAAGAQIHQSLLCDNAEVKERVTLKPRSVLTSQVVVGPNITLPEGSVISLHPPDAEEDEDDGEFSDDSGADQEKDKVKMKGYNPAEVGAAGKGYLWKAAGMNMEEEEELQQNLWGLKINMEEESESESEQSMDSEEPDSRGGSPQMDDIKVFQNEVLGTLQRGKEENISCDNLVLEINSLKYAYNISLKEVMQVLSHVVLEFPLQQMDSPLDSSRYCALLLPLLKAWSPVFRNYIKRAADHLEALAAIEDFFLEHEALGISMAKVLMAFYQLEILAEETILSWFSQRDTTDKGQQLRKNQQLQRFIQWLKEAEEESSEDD
# UniProt Q9BUP0: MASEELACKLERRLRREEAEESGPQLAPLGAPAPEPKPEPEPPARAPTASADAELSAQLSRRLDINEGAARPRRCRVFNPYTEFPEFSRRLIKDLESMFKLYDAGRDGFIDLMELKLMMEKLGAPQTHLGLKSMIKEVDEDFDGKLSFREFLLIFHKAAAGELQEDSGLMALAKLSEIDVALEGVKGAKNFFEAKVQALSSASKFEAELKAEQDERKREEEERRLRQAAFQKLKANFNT
# UniProt Q8N6R0: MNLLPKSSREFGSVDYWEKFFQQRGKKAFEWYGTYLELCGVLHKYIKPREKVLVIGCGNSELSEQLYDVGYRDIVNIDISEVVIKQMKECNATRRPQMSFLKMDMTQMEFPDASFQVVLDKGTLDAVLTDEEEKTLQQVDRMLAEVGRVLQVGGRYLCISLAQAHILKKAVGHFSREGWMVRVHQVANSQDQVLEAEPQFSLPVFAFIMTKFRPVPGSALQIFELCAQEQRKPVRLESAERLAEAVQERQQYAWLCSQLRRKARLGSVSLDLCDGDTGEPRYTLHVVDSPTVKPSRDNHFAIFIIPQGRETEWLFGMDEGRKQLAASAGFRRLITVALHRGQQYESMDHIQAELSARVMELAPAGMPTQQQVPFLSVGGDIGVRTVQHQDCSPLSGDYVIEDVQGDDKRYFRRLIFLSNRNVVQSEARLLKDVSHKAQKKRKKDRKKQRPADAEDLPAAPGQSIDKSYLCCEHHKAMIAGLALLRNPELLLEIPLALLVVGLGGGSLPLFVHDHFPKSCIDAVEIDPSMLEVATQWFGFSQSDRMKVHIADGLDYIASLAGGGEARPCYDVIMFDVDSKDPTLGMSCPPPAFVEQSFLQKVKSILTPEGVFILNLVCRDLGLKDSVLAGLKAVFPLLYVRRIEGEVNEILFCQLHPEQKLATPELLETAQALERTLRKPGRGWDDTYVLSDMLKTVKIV
# UniProt O43432, whole entry, looked up: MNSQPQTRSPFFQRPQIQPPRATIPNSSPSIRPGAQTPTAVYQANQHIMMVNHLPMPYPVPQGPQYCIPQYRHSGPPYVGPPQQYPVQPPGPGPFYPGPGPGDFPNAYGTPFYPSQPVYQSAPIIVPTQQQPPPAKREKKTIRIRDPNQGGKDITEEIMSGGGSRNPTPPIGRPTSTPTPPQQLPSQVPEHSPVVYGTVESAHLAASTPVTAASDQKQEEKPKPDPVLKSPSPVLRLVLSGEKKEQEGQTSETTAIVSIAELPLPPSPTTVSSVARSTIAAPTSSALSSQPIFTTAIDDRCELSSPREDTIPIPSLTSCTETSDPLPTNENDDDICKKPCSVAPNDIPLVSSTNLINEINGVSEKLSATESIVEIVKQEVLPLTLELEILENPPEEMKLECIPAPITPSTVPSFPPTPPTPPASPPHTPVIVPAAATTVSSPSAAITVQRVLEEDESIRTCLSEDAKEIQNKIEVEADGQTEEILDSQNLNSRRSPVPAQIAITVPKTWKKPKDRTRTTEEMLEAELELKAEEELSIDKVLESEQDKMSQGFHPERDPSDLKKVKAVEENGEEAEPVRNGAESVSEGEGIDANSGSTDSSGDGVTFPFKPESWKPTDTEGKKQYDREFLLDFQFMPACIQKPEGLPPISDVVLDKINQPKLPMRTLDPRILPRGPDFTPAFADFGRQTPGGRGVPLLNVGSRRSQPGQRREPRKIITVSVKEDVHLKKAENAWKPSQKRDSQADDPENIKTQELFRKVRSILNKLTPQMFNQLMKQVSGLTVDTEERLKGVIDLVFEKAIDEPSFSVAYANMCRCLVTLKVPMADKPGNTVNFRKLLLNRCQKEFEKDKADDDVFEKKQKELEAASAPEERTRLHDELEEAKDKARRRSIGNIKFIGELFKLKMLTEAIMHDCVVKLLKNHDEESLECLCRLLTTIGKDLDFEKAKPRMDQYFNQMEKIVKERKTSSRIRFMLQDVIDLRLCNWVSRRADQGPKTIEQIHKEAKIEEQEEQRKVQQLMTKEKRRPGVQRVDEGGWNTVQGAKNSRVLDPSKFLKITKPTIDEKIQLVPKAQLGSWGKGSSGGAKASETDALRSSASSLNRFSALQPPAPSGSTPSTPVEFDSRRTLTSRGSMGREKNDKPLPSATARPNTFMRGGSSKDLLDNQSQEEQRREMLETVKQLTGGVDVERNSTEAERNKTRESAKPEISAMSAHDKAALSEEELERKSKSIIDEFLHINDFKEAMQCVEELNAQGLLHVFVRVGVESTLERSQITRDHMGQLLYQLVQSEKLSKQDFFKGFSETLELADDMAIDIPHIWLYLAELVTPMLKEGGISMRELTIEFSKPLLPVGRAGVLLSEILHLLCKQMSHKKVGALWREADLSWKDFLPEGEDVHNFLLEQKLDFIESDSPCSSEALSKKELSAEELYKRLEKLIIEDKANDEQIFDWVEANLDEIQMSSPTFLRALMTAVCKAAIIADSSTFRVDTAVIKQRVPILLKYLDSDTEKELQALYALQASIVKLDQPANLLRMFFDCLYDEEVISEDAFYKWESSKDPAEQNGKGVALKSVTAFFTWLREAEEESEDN
# UniProt P32519: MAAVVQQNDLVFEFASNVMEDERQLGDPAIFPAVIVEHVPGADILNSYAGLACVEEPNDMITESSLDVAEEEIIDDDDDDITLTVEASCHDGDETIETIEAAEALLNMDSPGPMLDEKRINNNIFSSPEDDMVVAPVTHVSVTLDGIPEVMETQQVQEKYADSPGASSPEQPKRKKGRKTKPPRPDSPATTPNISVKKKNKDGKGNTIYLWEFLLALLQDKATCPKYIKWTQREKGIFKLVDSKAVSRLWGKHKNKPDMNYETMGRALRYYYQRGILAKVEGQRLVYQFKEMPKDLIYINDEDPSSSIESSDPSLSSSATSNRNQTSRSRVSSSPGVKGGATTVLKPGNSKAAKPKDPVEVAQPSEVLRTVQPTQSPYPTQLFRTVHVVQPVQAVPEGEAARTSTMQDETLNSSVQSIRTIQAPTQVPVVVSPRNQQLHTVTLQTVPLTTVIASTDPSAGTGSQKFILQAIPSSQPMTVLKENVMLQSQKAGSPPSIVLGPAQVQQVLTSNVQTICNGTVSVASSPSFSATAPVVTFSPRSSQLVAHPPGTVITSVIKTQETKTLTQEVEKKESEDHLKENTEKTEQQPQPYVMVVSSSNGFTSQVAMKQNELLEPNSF
# UniProt P50402: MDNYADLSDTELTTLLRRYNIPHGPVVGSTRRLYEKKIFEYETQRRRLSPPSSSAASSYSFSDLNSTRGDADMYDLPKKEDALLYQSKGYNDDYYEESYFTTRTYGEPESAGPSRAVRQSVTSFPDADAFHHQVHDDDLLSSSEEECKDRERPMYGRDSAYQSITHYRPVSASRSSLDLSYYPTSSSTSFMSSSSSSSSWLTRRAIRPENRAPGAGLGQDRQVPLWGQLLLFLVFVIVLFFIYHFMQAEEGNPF
# UniProt P26641, whole entry, looked up: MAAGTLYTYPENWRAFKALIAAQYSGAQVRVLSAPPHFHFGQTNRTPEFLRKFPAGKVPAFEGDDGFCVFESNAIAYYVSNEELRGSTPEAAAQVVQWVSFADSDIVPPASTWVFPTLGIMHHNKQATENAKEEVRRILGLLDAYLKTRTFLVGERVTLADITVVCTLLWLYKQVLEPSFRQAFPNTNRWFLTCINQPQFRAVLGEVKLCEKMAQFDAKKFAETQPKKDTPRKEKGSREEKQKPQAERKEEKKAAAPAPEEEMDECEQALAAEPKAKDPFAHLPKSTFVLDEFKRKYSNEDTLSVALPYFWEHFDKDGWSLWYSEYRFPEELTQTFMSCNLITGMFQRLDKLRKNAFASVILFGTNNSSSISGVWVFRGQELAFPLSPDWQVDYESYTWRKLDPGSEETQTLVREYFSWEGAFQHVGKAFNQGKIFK
# UniProt Q15369, whole entry, looked up: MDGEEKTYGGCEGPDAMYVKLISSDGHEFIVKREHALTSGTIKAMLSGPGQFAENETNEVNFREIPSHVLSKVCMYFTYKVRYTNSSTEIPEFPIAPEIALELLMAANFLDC
# UniProt Q9GZT9: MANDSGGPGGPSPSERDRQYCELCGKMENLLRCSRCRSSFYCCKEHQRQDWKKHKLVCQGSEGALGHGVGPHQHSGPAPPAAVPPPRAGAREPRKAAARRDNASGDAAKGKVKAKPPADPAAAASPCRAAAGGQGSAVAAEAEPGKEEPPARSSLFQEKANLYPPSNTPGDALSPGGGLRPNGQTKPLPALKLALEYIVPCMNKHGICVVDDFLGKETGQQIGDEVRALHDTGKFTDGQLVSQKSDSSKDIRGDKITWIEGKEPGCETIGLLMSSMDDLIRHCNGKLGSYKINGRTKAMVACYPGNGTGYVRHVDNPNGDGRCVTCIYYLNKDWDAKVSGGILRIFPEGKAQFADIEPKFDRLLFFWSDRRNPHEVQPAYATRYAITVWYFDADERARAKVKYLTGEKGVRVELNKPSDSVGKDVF
# UniProt Q9UI10, whole entry, looked up: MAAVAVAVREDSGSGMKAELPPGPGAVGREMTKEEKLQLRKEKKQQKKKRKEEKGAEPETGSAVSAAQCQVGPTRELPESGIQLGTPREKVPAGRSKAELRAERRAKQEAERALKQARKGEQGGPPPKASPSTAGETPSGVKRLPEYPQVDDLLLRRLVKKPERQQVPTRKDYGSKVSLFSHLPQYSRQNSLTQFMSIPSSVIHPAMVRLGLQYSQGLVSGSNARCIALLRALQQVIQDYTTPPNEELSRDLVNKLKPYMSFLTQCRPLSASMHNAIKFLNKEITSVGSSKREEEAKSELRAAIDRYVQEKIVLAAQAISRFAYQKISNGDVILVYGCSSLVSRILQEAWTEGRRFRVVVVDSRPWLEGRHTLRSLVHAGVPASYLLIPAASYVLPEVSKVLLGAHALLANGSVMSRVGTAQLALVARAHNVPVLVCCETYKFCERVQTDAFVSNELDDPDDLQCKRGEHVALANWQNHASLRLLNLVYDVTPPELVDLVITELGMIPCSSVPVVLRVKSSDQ
# UniProt O60573: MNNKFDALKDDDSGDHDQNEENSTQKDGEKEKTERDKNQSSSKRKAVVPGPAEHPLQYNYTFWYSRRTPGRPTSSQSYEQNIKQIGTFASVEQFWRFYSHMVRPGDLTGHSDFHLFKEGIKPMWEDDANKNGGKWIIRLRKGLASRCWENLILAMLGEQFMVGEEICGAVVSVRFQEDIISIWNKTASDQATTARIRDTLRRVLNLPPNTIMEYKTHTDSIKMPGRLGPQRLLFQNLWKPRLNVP
# The other results are listed elsewhere or left out.
# Key:
# Assay in all cases: log2 fold change, soluble protein after heating vs DMSO (PISA); higher = thermal stabilisation; K562 cells, 10 uM, 30 min; active = over 0.2 and 3.5 SD of the protein, either way, in both replicates (recomputed)
# [1] = compound: CN1CCN(CCOc2cc(OC3CCOCC3)c3c(Nc4c(Cl)ccc5c4OCO5)ncnc3c2)CC1 [saracatinib]
# How it was run: (§1)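 Thermal stability values are relative to control samples and come from duplicates. They are expressed as log2 fold changes. For measurement, K562 cells (2×10^6 cells/mL) received 10 μM compound for 30 min, and aliquots were heated for 3 min over 48°C-58°C, pooled, and extracted at 4°C in PBS with 0.5% NP-40. Soluble protein, the supernatant after 21,000xg for 90 min, was quantified by TMTpro 16plex LC-MS/MS with equalised channel sums.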
# [2] = compound: CN1CCN(c2nc(C3=C(c4c[nH]c5ccccc45)C(=O)NC3=O)c3ccccc3n2)CC1 [sotrastaurin]
# How it was run: as §1
# [3] = compound: CN1CC[C@H](c2c(O)cc(O)c3c(=O)cc(-c4ccccc4Cl)oc23)[C@H](O)C1 [alvocidib]
# How it was run: as §1
# [4] = compound: CN1CCc2c(c3ccccc3n2Cc2ccc(C(=O)NO)cc2)C1 [Tubastatin A]
# How it was run: as §1
# [5] = compound: CNC(=O)C1=CC=CC=C1NC2=NC(=NC=C2Cl)NC3=C(C=C(C=C3)N4CCOCC4)OC
# How it was run: as §1
# [6] = compound: CNC(=O)c1ccc(Nc2ncc(C(F)(F)F)c(NCc3nccnc3N(C)S(C)(=O)=O)n2)cc1 [defactinib]
# How it was run: as §1
# [7] = compound: CNCc1ccc(-c2[nH]c3cc(F)cc4c3c2CCNC4=O)cc1 [rucaparib]
# How it was run: as §1
# [8] = compound: CNc1nc(-c2ccc3c(N)n[nH]c3c2)cc(N2C[C@@H](C(=O)NC3CCCCC3)CC[C@H]2C)n1
# How it was run: as §1
# [9] = compound: COC(=O)N[C@@H](C)CNc1nccc(-c2cn(C(C)C)nc2-c2cc(Cl)cc(NS(C)(=O)=O)c2F)n1 [encorafenib]
# How it was run: as §1
# [10] = compound: COC(=O)[C@H](CCSC)NC(=O)C1=C(C=C(C=C1)NC[C@H](CS)N)C2=CC=CC=C2
# How it was run: as §1
Target,log2 fold change [1],log2 fold change [2],log2 fold change [3],log2 fold change [4],log2 fold change [5],log2 fold change [6],log2 fold change [7],log2 fold change [8],log2 fold change [9],log2 fold change [10]
EIF1AX (UniProt P47813),inactive: 0.007,inactive: 0.014,inactive: 0.019,inactive: -0.025,inactive: 0.545,inactive: -0.003,inactive: -0.093,inactive: 0.011,inactive: 0.014,inactive: 0.003
ELMOD2 (UniProt Q8IZ81),inactive: 0.01,inactive: -0.009,inactive: -0.088,inactive: -0.007,inactive: 0.044,inactive: -0.051,inactive: -0.018,inactive: -0.069,inactive: 0.001,inactive: -0.025
EEF1A1 (UniProt P68104),inactive: 0.093,inactive: -0.082,active: -0.885,inactive: -0.096,inactive: 0.007,inactive: -0.079,inactive: 0.146,inactive: 0.102,inactive: -0.009,inactive: -0.059
EIF4EBP2 (UniProt Q13542),inactive: -0.045,inactive: -0.019,inactive: -0.081,inactive: 0.128,inactive: 0.014,inactive: 0.065,inactive: -0.018,inactive: -0.108,inactive: -0.057,inactive: 0.153
EMP3 (UniProt P54852),inactive: 0.082,inactive: -0.011,inactive: -0.101,inactive: -0.036,inactive: 0.002,inactive: -0.024,inactive: -0.1,inactive: 0.057,inactive: 0.1,inactive: 0.03
EFEMP1 (UniProt Q12805),inactive: 0.015,inactive: 0.116,inactive: 0.212,inactive: -0.065,inactive: -0.117,–,–,inactive: -0.131,–,–
ENTPD6 (UniProt O75354),inactive: -0.062,inactive: 0.068,inactive: 0.011,inactive: -0.029,inactive: 0.026,–,inactive: 0.068,inactive: 0.061,inactive: 0.044,–
EIF2B5 (UniProt Q13144),inactive: -0.02,inactive: -0.031,inactive: 0.038,inactive: 0,inactive: -0.004,inactive: 0.087,inactive: 0.064,inactive: 0.088,inactive: 0.099,inactive: -0.024
EHHADH (UniProt Q08426),inactive: -0.008,inactive: 0.045,inactive: -0.003,inactive: 0.042,inactive: -0.018,inactive: -0.037,inactive: 0.017,inactive: -0.011,inactive: 0.032,inactive: 0.022
EIF3G (UniProt K7ER90),inactive: -0.169,inactive: -0.118,inactive: -0.048,inactive: 0.021,inactive: 0.071,inactive: -0.039,–,inactive: -0.094,–,inactive: -0.022
EMC2 (UniProt Q15006),inactive: 0.002,inactive: 0.021,inactive: -0.024,inactive: 0.023,inactive: 0.005,inactive: -0.02,inactive: -0.078,inactive: -0.032,inactive: -0.007,inactive: 0.006
EIF2AK1 (UniProt Q9BQI3),inactive: 0.073,inactive: 0.095,–,inactive: 0.128,inactive: 0.002,inactive: -0.008,–,inactive: -0.09,–,inactive: 0.04
EFHD1 (UniProt Q9BUP0),inactive: 0.114,inactive: -0.073,inactive: 0.289,inactive: -0.103,–,inactive: 0,–,inactive: -0.399,–,inactive: 0.097
EPB41L1 (UniProt Q9H4G0),inactive: 0.066,–,inactive: 0.24,inactive: 0.01,inactive: -0.063,inactive: -0.069,inactive: -0.054,inactive: 0.056,inactive: 0.012,inactive: 0.041
EEF1AKNMT (UniProt Q8N6R0),inactive: -0.063,inactive: -0.174,–,inactive: -0.004,inactive: 0.063,inactive: -0.068,inactive: 0.115,inactive: 0.059,inactive: 0.095,inactive: -0.182
EIF4A1 (UniProt P60842),inactive: -0.029,inactive: -0.138,–,inactive: 0.049,inactive: -0.03,inactive: -0.116,inactive: 0,inactive: 0.012,inactive: 0.071,inactive: -0.05

# In a second layout: results already given.
Target	log2 fold change [1]	log2 fold change [2]	log2 fold change [3]	log2 fold change [4]	log2 fold change [5]	log2 fold change [6]	log2 fold change [7]	log2 fold change [8]	log2 fold change [9]	log2 fold change [10]
EFEMP1 (UniProt Q12805)	inactive: 0.015	inactive: 0.116	inactive: 0.212	inactive: -0.065	inactive: -0.117	–	–	inactive: -0.131	–	–
ENTPD6 (UniProt O75354)	inactive: -0.062	inactive: 0.068	inactive: 0.011	inactive: -0.029	inactive: 0.026	–	inactive: 0.068	inactive: 0.061	inactive: 0.044	–

# (list continues)

Target,log2 fold change [1],log2 fold change [2],log2 fold change [3],log2 fold change [4],log2 fold change [5],log2 fold change [6],log2 fold change [7],log2 fold change [8],log2 fold change [9],log2 fold change [10]
EIF4G3 isoform 3 (UniProt O43432),inactive: -0.076,inactive: -0.038,–,inactive: -0.016,inactive: -0.019,inactive: 0.04,inactive: 0.519,inactive: -0.056,inactive: 0.031,inactive: -0.025
EOGT (UniProt Q5NDL2),inactive: -0.012,inactive: 0.052,–,inactive: 0.025,inactive: 0,inactive: 0.031,inactive: 0.014,inactive: -0.158,inactive: 0.042,inactive: -0.032
ELF1 (UniProt P32519),inactive: 0.02,inactive: -0.027,–,inactive: 0.075,inactive: 0.013,–,inactive: -0.301,inactive: -0.03,inactive: 0.018,–
EMD (UniProt P50402),inactive: 0.011,inactive: 0.063,–,inactive: -0.028,inactive: -0.046,inactive: -0.027,inactive: 0.008,inactive: -0.064,inactive: -0.056,inactive: 0.032
ENPP3 (UniProt O14638),inactive: -0.11,inactive: -0.071,inactive: 0,–,inactive: -0.012,inactive: 0.009,inactive: 0.167,inactive: -0.161,inactive: 0.008,inactive: 0.029
EFCAB14 (UniProt O75071),inactive: -0.164,inactive: 0.083,–,inactive: -0.029,inactive: -0.03,inactive: 0.093,inactive: -0.059,inactive: 0.031,inactive: 0.044,inactive: -0.086
EIF3J (UniProt O75822),inactive: -0.042,inactive: -0.028,–,inactive: -0.005,inactive: 0.019,inactive: 0.019,inactive: -0.072,inactive: -0.037,inactive: -0.008,inactive: -0.029
EHBP1L1 (UniProt Q8N3D4),inactive: -0.065,inactive: -0.082,–,inactive: 0.098,inactive: -0.002,inactive: -0.089,inactive: 0.1,inactive: -0.008,inactive: 0.127,inactive: -0.017
"EED, A0A5F9ZI63",inactive: 0.008,inactive: -0.065,–,inactive: -0.041,inactive: -0.057,inactive: -0.04,inactive: 0.125,inactive: -0.052,inactive: 0.025,inactive: -0.05
EEF1G isoform 2 (UniProt P26641),inactive: -0.012,inactive: -0.041,–,inactive: -0.008,inactive: 0.075,inactive: -0.051,inactive: 0.045,inactive: 0.02,inactive: 0.076,inactive: -0.047
ELOC (UniProt Q15369),inactive: 0.008,inactive: 0.01,–,inactive: 0.035,inactive: 0.025,inactive: -0.033,inactive: -0.021,inactive: 0,inactive: -0.021,inactive: -0.014
ELMO1 (UniProt Q92556),inactive: 0.051,inactive: 0.046,–,–,inactive: -0.074,inactive: -0.045,–,inactive: 0.041,–,inactive: -0.222
EGLN1 (UniProt Q9GZT9),inactive: -0.01,inactive: -0.074,–,active: -0.296,inactive: 0.065,inactive: -0.027,inactive: 0.114,inactive: 0.03,inactive: 0.001,inactive: 0.002
ELOVL5 isoform 2 (UniProt Q9NYP7),inactive: -0.037,inactive: -0.084,–,inactive: -0.085,inactive: -0.032,inactive: -0.016,inactive: -0.026,inactive: -0.135,inactive: 0.132,inactive: -0.048
EIF2B4 (UniProt Q9UI10),inactive: 0.281,–,inactive: -0.058,inactive: 0.007,inactive: -0.095,inactive: 0.091,inactive: -0.044,inactive: 0.098,inactive: 0.042,inactive: -0.025
EIF4E2 (UniProt O60573),inactive: -0.229,inactive: -0.288,–,inactive: 0.07,inactive: -0.026,inactive: -0.001,inactive: 0.126,inactive: 0.008,inactive: -0.013,inactive: -0.013
